# Among all 340,000 compounds or so, about 6,200 (1.8%) were called active. Inconclusive results, whose numbers are uncertain, are shown with a selection of clear calls. The call rests on the fitted dose curve; in most records, active means well fitted activation curve with a large enough effect; inconclusive means small, poorly fitted or top-dose-only effect; inactive means no such curve, though single readings can be large or run the other way. A potency beside an inconclusive call is a rough fit, not a confirmed value.
# Assay: A quantitative high throughput screen for small molecules that induce DNA re-replication in SW480 colon adenocarcinoma cells. Further: nearly all actives have a fitted effect of over 55% in size.
# Settings: Hoechst DNA content imaging, 48 h; series mostly up to 46.1 µM
# In short: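 DNA re-replication was detected as more nuclei of elevated Hoechst intensity after 48 hr exposure to compound (23 nL pinned per well of 250 cells).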
# Potency means the concentration at half of the fitted maximal effect.
row,Compound,Potency
1,Cc1ccc(/C(O)=C2\C(=O)C(=O)N(CC(C)O)C2c2ccc(N(C)C)cc2)cc1 (stereo not drawn),inactive
2,COc1ccc(S(=O)(=O)NCC(=O)NCc2cc(=O)n(C)c(=O)n2C)cc1F,"inconclusive: 29.1 µM [activator, single point]"
3,Cc1ccc(C(=O)N/C(=C\c2cn(S(=O)(=O)N(C)C)c3ccccc23)C(=O)NCCCN2CCOCC2)cc1,"inconclusive: 29.1 µM [activator, single point]"
4,CC1CCN(S(=O)(=O)c2ccc(NC(=O)C3CSC4(C)CCC(=O)N34)cc2)CC1 (stereo not drawn),"inconclusive: 0.82 µM [activator, partial curve, poor fit]"
5,COc1ccc(NC(=O)C2CCN(c3cc(C)nc(-c4ccccc4)n3)CC2)cc1,inactive
6,c1ccc(-c2nc(N3CCOCC3)c3ccccc3n2)nc1,"inconclusive: 35.5 µM [activator, single point]"
7,COc1ccc(C2=NOC(Cn3nc(-c4ccccc4)cc3C(=O)NCc3ccccc3OC)C2)cc1 (stereo not drawn),inactive
8,COc1ccc(/C=C2\SC(=S)N(CCCC(=O)N3CCOCC3)C2=O)cc1,"inconclusive: 20.6 µM [activator, single point]"
9,Cc1ccc2c(n1)sc1c(-c3ccc(Br)cc3)c(C#N)c(N)nc12,active: 2.31 µM
10,COc1ccc(/C(=N/Nc2ncnc3ccccc23)C(=O)O)cc1,"inconclusive: 29.1 µM [activator, single point]"
11,COC(=O)CN1C(=S)N(c2ccc(Cl)cc2)C(=O)C1CC(=O)Nc1ccccc1 (stereo not drawn),"inconclusive: 9.2 µM [activator, single point]"
12,COc1ccc(OC)c(C2Nc3ccccc3NC3=C2C(=O)CC(C)(C)C3)c1 (stereo not drawn),inactive
13,CN(Cc1cc(=O)n2ccsc2n1)c1ccccc1,"inconclusive: 29.1 µM [activator, partial curve, poor fit]"
14,Cc1cc(C(=O)CSc2n[nH]c(N)n2)c(C)n1-c1cccc(F)c1,"inconclusive: 16.4 µM [activator, single point]"
15,COc1ccc(NC(=S)N/N=C/c2ccc(F)c(F)c2)cc1,"inconclusive: 18.4 µM [activator, single point]"
16,O=C(CNC(=O)c1ccco1)Nc1ccc2c(c1)OCCO2,"inconclusive: 23.1 µM [activator, single point]"
17,N#Cc1ccc(Oc2ccc(-c3nc4ccccc4nc3-c3ccccc3)cc2)cc1C#N,inactive
18,Cc1onc(-c2c(F)cccc2Cl)c1C(=O)Nc1nc2ccccc2[nH]1,"inconclusive: 29.1 µM [activator, single point]"

# A section from the list above, as a working copy:
row,Compound,Potency
2,COc1ccc(S(=O)(=O)NCC(=O)NCc2cc(=O)n(C)c(=O)n2C)cc1F,"inconclusive: 29.1 µM [activator, single point]"
3,Cc1ccc(C(=O)N/C(=C\c2cn(S(=O)(=O)N(C)C)c3ccccc23)C(=O)NCCCN2CCOCC2)cc1,"inconclusive: 29.1 µM [activator, single point]"

# From PubChem BioAssay AID624297 (National Center for Advancing Translational Sciences (NCATS), 2012)
